Laboratory results as given in article PMC10462637.
Results are given in words; binding and its absence hold for the method and conditions named. Binding seen in cells or lysates may run through a third protein. Some entries that bind do so weakly or less than the wild type.

Sequences of proteins named here, by UniProt entry; tags and fusion partners are left off.
UniProt Q68E01: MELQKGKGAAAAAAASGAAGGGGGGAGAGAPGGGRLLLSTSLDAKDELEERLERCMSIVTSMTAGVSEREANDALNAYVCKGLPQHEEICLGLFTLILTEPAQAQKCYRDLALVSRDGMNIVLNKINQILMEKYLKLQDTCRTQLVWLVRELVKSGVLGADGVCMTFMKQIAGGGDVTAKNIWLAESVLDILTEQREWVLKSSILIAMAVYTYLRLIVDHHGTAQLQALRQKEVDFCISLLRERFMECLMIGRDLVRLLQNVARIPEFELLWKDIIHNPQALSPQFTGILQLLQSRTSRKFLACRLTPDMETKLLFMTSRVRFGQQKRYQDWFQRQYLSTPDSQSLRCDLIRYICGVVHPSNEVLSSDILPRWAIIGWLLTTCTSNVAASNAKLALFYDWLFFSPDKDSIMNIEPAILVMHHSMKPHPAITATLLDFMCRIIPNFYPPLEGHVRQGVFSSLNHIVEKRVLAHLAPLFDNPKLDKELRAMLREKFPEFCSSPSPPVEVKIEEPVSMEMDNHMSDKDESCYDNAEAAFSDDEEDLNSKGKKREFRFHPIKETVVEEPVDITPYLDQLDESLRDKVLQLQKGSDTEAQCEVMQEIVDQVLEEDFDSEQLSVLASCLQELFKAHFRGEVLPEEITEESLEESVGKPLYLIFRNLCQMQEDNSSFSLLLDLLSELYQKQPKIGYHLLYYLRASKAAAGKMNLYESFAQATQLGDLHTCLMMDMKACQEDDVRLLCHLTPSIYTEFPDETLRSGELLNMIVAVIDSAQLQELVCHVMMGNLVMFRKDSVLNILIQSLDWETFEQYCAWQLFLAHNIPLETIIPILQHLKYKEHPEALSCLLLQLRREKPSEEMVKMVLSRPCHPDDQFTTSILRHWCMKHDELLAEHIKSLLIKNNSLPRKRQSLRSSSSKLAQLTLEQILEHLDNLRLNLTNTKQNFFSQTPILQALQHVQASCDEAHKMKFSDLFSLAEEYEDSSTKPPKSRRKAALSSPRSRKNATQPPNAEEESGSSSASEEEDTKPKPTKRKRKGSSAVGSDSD
UniProt Q96AH0: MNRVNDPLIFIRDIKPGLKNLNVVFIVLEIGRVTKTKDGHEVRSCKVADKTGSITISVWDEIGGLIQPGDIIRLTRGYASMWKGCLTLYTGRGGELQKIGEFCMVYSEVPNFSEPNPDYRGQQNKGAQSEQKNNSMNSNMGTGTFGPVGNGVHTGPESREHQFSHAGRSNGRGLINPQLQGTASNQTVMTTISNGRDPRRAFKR

Target: SFB-SOSSA (UniProt Q68E01)
Experiment: co-IP; 293T cells co-transfected for 24 h, lysed and sonicated in NETN buffer (0.5% NP-40, 20 mM Tris-HCl pH 8.0, 0.1 mM NaCl, 1 mM EDTA, protease inhibitor); supernatant incubated with S protein beads for 4 h, washed with NETN; Western blotting

## SOSSB2 (wild type, full length) (from UniProt Q96AH0 1-204)
  binding: binds
